Reference: patent publication CN114716546A
These are yes or no findings as the source states them, for the method shown. Some entries that bind do so weakly or less than the wild type. Tags and fused reporters may be left off the sequences shown.

By UniProt entry, the sequences of proteins in these tests, tags left out. Residues count along the entry.
UniProt P42227, residues 2-770: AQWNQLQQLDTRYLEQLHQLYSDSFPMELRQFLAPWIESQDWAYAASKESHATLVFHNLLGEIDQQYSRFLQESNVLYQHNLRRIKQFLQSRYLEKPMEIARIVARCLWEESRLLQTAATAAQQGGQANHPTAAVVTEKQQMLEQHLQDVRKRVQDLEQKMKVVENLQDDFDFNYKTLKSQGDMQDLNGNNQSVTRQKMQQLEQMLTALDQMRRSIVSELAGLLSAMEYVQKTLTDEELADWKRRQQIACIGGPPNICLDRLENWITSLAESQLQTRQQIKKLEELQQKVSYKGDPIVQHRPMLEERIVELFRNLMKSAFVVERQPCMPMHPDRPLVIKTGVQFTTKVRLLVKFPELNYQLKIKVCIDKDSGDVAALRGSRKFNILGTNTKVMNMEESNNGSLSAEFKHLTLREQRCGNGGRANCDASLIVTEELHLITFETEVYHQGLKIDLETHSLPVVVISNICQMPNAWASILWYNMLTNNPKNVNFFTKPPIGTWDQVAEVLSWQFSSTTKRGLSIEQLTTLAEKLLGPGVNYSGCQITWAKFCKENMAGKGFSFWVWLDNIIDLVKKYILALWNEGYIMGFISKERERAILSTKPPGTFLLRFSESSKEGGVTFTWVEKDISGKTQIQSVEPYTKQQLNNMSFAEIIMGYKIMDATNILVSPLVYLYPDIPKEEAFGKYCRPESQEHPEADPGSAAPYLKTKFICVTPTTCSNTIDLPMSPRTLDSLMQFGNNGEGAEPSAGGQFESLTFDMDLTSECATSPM

Experiments:
[1] = target: STAT3 in mouse brain tissue (mouse) (UniProt P42227); assay: Western blot of mouse brain protein, nanobody as first antibody, HRP anti-His as second
[2] = target: STAT3 in mouse brain tissue (mouse) (UniProt P42227); assay: immunohistochemistry on normal mouse brain tissue, nanobody as first antibody, HRP anti-His as second

B1: STAT3纳米抗体 (purified, His-tagged STAT3-VHH-10B expressed from pCold I in E. coli BL21(DE3)) (VHH, not shown: small tags and cut ends)
VHH: ESGGGLVQPGGSLRLSCAASGFTFSNYAMTWVRQAPGKGPEWVSDINMAGSMTRYADSVKGRFTISRDNAKNTLYLQMDSLKPEDTGLYYCARRNVGWDGTAGEEWDFRGQGTQVTVSS
In the case of B1, the binding [1] is reported as “binds” and the binding [2] is reported as “binds”.
